Experimental data reported in patent US20120329749A1, “Methods Of Preventing Or Treating Disease States Related To Certain Metabolic Abnormalities” (priority 2011, published 2012).
Counter-ions that a name gives are not always drawn. At least one structure is not confirmed: it was looked up by name or label, or the drawing left a doubt.

Test system: erectile dysfunction
Assay: Patient-reported erectile dysfunction symptoms
Settings: had been taking sildenafil citrate and tadalafil

SMILES	effect on erectile dysfunction (patient history) (Patient 23)	effect on erectile dysfunction (patient history) (Patient 24)
CN1CC(=O)N2[C@H](c3ccc4c(c3)OCO4)c3[nH]c4ccccc4c3C[C@@H]2C1=O [tadalafil]	no resolution of the erectile dysfunction	no resolution of the erectile dysfunction
CCCc1nn(C)c2c(=O)[nH]c(-c3cc(S(=O)(=O)N4CCN(C)CC4)ccc3OCC)nc12 [sildenafil citrate]	no resolution of the erectile dysfunction	no resolution of the erectile dysfunction
